The text below walks through data of patent US20260240836A1, “ENHANCER OF PHYSIOLOGICAL ACTIVITY OF HEPATOCYTE GROWTH FACTOR” (KYOWA HAKKO BIO CO., LTD., priority 2023, published 2026).

Structures are written as SMILES.

The data set has as its system muscle stem cells (satellite cells). Kind of data set: Bright-field morphology of muscle stem cells cultured with trisulfide and HGF. The format is cell-based, rat. Conditions: trisulfide (1:8000) plus HGF 3 ng/ml.

For `N[C@@H](CCC(=O)N[C@@H](CSSSC[C@H](NC(=O)CC[C@H](N)C(=O)O)C(=O)NCC(=O)O)C(=O)NCC(=O)O)C(=O)O` [GSSSG, glutathione trisulfide], the “morphology of cultured cells vs control groups (NC and PC)” value was “did not differ”.

On to `O=C(O)CCCCC1CCSSS1` (centres unmarked) [LA-SSS, lipoic acid trisulfide], for which the “morphology of cultured cells vs control groups (NC and PC)” value is on record as “did not differ”.
